Taken from: PubChem BioAssay AID1159578 (Peter MacCallum Cancer Centre, 2015)

Test: 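Knock-downs that alter how fast lymphatic endothelial cells migrate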 (primary screen)
System: human lymphatic endothelial cells
Knock-down reagent: siRNA pool against human genes, 40 nM
Timing: 48 h after transfection
Read-out: 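High-content imaging of dye-stained cells in a scratch assay measures filled wound area and nuclei per well; duplicate means given as ratio to mock and robust z-score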
Reading the numbers: migration robust z-score: higher = faster migration into the scratch; migration relative to mock: higher = more scratch area covered than mock; nuclei per well: higher = more cells in the well
Hit rule: 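Pools averaging fewer than 3300 nuclei are never called; remaining pools count as changed when migration robust z lies outside -2 to 2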
Meaning of the calls: active = migration changed; inactive = no migration change, or too few cells
The deposit covers about 18,000 reagents; below is a part drawn at random. In the full data, about 1,030 (5.7%) are marked active. 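Inactive calls also include pools with fewer than 3300 nuclei, whose migration was not assessed.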 The raw values are shown without normalisation. Reagents against one gene are numbered here.

Target gene,pool no.,migration robust z-score,migration class with cell-count check,migration relative to mock,"nuclei per well, duplicate mean",Outcome
CDRT15P3,1,-0.84,migration z between -2 and 2; enough cells,0.66,4516,inactive
TMEM236,1,0.88,migration z between -2 and 2; enough cells,1.12,6220,inactive
CCL8,1,0.32,migration z between -2 and 2; enough cells,0.97,5737,inactive
FBXL19,1,-0.52,migration z between -2 and 2; enough cells,0.7,5444,inactive
GFI1,1,1.5,migration z between -2 and 2; enough cells,1.1,5972,inactive
PCOLCE,1,0.57,migration z between -2 and 2; enough cells,1.03,5405,inactive
MTNAP1,1,0.04,migration z between -2 and 2; enough cells,0.9,6324,inactive
TRAPPC11,1,0.53,migration z between -2 and 2; enough cells,1.02,7200,inactive
SCAF1,1,-0.88,migration z between -2 and 2; enough cells,0.66,5129,inactive
PLEKHG7,1,2.8,migration z above 2; enough cells,1.61,7274,active
PLEKHG7,2,-0.46,migration z between -2 and 2; enough cells,0.76,5750,inactive
RELCH,1,-2.16,under 3300 nuclei; migration not judged,0.32,1730,inactive
CHST7,1,-1.42,migration z between -2 and 2; enough cells,0.53,5808,inactive

Continued; the last 2 above are carried over.
Target gene,pool no.,migration robust z-score,migration class with cell-count check,migration relative to mock,"nuclei per well, duplicate mean",Outcome
RELCH,1,-2.16,under 3300 nuclei; migration not judged,0.32,1730,inactive
CHST7,1,-1.42,migration z between -2 and 2; enough cells,0.53,5808,inactive
FBXW7,1,-1.5,migration z between -2 and 2; enough cells,0.52,5340,inactive
BTG2,1,0.68,migration z between -2 and 2; enough cells,0.94,5230,inactive
TAGLN,1,1.72,migration z between -2 and 2; enough cells,1.34,5018,inactive
STX1B,1,1.92,migration z between -2 and 2; enough cells,1.17,6186,inactive
NAP1L1,1,-0.32,migration z between -2 and 2; enough cells,0.8,5674,inactive
TMEM200C,1,0.02,migration z between -2 and 2; enough cells,0.89,5657,inactive
PEBP1,1,-0.74,migration z between -2 and 2; enough cells,0.69,5968,inactive
DPPA3,1,0.84,migration z between -2 and 2; enough cells,1.1,5502,inactive
SP2,1,0.9,migration z between -2 and 2; enough cells,0.98,5606,inactive
ZNF623,1,0.08,migration z between -2 and 2; enough cells,0.9,6442,inactive
